Measurements reported in publication PMC12105006, “AI-Driven De Novo Design and Development of Nontoxic DYRK1A Inhibitors” (Journal of Medicinal Chemistry, 2025).

The chains behind the UniProt entries cited, without tags or fusion partners.
UniProt Q9Y463, whole entry: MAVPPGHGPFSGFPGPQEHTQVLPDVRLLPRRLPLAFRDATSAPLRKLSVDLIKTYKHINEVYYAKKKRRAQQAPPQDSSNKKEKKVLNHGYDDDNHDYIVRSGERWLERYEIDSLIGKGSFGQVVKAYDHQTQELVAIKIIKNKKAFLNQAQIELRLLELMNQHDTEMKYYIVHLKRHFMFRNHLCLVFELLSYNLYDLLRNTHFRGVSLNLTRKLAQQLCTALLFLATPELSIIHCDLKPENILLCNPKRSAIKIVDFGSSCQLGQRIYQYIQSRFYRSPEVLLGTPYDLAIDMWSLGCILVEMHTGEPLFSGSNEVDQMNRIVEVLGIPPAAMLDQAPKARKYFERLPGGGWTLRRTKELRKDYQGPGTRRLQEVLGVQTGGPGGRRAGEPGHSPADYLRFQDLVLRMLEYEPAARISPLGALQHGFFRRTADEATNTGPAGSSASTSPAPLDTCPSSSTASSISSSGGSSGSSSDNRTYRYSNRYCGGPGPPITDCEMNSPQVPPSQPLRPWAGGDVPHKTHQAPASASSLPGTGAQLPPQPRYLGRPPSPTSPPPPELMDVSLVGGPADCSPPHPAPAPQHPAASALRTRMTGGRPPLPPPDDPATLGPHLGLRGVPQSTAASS

Target: DYRK1B (Homo sapiens, UniProt Q9Y463)
Assay: ADP-Glo DYRK1B kinase enzyme inhibition assay
Details: read-out: IC50 (nM) DYRK1B; ATP (10 μmol/well) and DYRKtidE (4 μmol/well) as substrate; triplicate

`COc1ccc2c(c1)[nH]c1c(C)nccc12` [harmine, reference compound] was tested, and the IC50 was 147 ± 54 nM.
